# This is one part of the list. Further columns of the screen follow, without active or inactive calls. The list favours compounds with an active or inconclusive main result. Words in brackets tell the shape of the fitted curve; partial curves, single points and poor fits give uncertain potencies.
# Assay: Cell signaling CRE-BLA (Fsk stim)
# Settings: CHO CRE-bla reporter (cAMP response element driving beta-lactamase), forskolin EC10, beta-lactamase ratio; measured here: 460 nm blue channel
# Summary of the method: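 CRE-bla CHO reporter cells treated with compound titration plus EC10 NKH 477 (water-soluble forskolin), incubated 3 h at 37 °C; CCF4 loading 2 h at room temperature, 460/530 nm emission ratio read, AC50 values derived for positive or negative modulators.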
row,SMILES,AC50
1,O=C(c1cccc(S(=O)(=O)N2CCCC2)c1)c1cccc(S(=O)(=O)N2CCCC2)c1,"0.398 µM [rising, full curve]"
2,Cc1cc(C)n(-c2ccc(C(=O)Nc3ccccc3N3CCOCC3)cc2)n1,"25.1 µM [rising, single point]"
3,CC1CCC(C(=O)O)([C@H](Br)C(=O)O)CC1 (some centres not stated),"0.000794 µM [falling, full curve, poor fit]"
4,O=C(CCCN1CCC(O)(c2ccc(Cl)cc2)CC1)c1ccc(F)cc1,"25.1 µM [falling, partial curve]"
5,COc1ccc(C(c2nnnn2C2CCCCC2)N2CCN(c3ccc(OC)cc3)CC2)cc1 (configuration not stated),"10 µM [rising, partial curve]"
6,CC(=O)Nc1ccc(OCC(O)CN2CCN(c3cc(Cl)ccc3C)CC2)cc1 (configuration not stated),"0.0631 µM [falling, full curve, poor fit]"
7,Cc1ccc2cc(CCNC(=O)c3ccco3)c(=O)[nH]c2c1C,"10 µM [falling, partial curve]"
8,Cc1nn(Cc2ccc(Cl)cc2)c(C)c1NC(=O)C1CC=CCC1C(=O)O (configuration not stated),"0.398 µM [falling, full curve]"
9,CCOC(=O)CSc1nc(N)c(C#N)c(-c2cccs2)c1C#N,"10 µM [rising, partial curve]"
10,CCOC(=O)N1CCC(NC(=O)c2cc(C(=O)Nc3ccc(OC)c(OC)c3)ccc2CO)CC1,"1.58 µM [rising, partial curve]"
11,O=C1C(=O)N(CCCN2CCOCC2)C(c2ccccn2)/C1=C(\O)c1ccc2c(c1)OCCO2 (configuration not stated),"5.01 µM [falling, partial curve]"
12,CCCCC(=O)Nc1nn(C)c2nc3c(C)cccc3cc12,"0.794 µM [rising, full curve]"
13,Brc1cccc(-c2nnc3n2CCC3)c1,"5.01 µM [falling, single point]"
14,CN(C)CCN1C(=O)C(=O)/C(=C(/O)c2ccc(S(=O)(=O)N3CCOCC3)cc2)C1c1ccccc1 (configuration not stated),"0.00398 µM [falling, full curve, poor fit]"
15,COc1ccc(-n2c(Cc3cccn3C)nnc2SCC(=O)Nc2ccc3c(c2)OCCO3)cc1,"2.51 µM [falling, full curve]"
16,CCCn1c(=NC(=O)c2ccco2)c(C(=O)OCC)cc2c(=O)n3ccccc3nc21,"12.6 µM [rising, partial curve]"
17,Cc1cc(C(=O)CSc2n[nH]c(N)n2)c(C)n1-c1cccc(F)c1,"15.8 µM [rising, single point]"
18,COc1cccc(NC(=O)CSc2nnc(-c3cc(C)n(-c4ccccc4)c3C)o2)c1,"10 µM [rising, single point]"
19,c1ccc(-c2nc(N3CCOCC3)c3ccccc3n2)nc1,"12.6 µM [rising, single point]"
20,CCOC(=O)CCc1c(C)c2ccc(OCC(=O)OC(C)C)cc2oc1=O,"10 µM [rising, single point]"
21,O=C(c1ccco1)N1CCN(c2c(-c3ccccc3)c3cc(Cl)ccc3[nH]c2=O)CC1,"10 µM [falling, partial curve]"
22,COc1cccc(-c2cc(C(=O)NCc3ccco3)no2)c1,"0.00501 µM [falling, full curve, poor fit]"
23,O=C(Oc1cc(=O)oc2ccccc12)c1ccco1,"25.1 µM [rising, single point]"

row,SMILES,AC50
1,CCn1nc(NC(=O)c2ccncc2)c2cc3ccccc3nc21,"10 µM [rising, partial curve]"
2,Cn1c(C(=O)N2CCCc3ccccc32)cc2c(=O)n3ccccc3nc21,"12.6 µM [rising, partial curve]"
3,Oc1ccc([C@@H]2CNCCc3c2cc(O)c(O)c3Cl)cc1,"25.1 µM [falling, partial curve, poor fit]"
4,N#Cc1nc(COc2ccccc2)oc1N1CCC(Cc2ccccc2)CC1,"2 µM [rising, full curve]"
5,CC(C)n1c(SCC(N)=O)nc2c1c(=O)n(C)c(=O)n2C,"25.1 µM [rising, single point]"
6,COC(=O)C1=C(C)OC(N)=C(C#N)C1c1cc(OC)c(OCC(N)=O)cc1Cl (configuration not stated),"0.00794 µM [falling, full curve]"
7,NC(=O)NC(=O)Nc1ccccc1Cl,"0.00398 µM [falling, full curve, poor fit]"
8,CCCN1C(=O)SC(CC(=O)Nc2ccc(Br)cc2)C1=O (configuration not stated),"1.26 µM [rising, partial curve]"
9,Cc1ccc2nc(NC(=O)C3CCN(S(=O)(=O)c4cccs4)CC3)sc2c1,"0.398 µM [falling, single point]"
10,COc1cccc2c1nc(C)c1cc(C)oc12,"10 µM [rising, partial curve]"
11,COc1ccc(-c2oc3ncnc(NCCCN4CCOCC4)c3c2-c2ccc(OC)cc2)cc1,"5.01 µM [rising, partial curve]"
12,Cc1ccccc1NC(=O)CSc1nc(N)c(C#N)c(-c2cccs2)c1C#N,"12.6 µM [rising, single point]"
13,CCc1[nH]nc2c1C1(CCN(C(=O)OCc3ccccc3)CC1)C(C#N)=C(N)O2,"7.94 µM [rising, partial curve]"
14,NCCSc1nc(-c2ccccc2)c(-c2ccccc2)o1,"1 µM [rising, single point]"
15,COc1nc2cc(C)ccc2cc1-c1noc(-c2cccnc2)n1,"20 µM [falling, single point]"
16,O=C(Nc1cc(C(F)(F)F)ccc1N1CCOCC1)c1cncc(Br)c1,"12.6 µM [rising, single point]"
17,O=C(Nc1ncccc1O)c1cccc(S(=O)(=O)N2CCc3ccccc32)c1,"3.16 µM [falling, partial curve]"
18,Cc1c(NC(=O)CSc2ccccc2C(=O)Nc2cccnc2)c(=O)n(-c2ccccc2)n1C,"5.01 µM [rising, single point]"
19,COc1ccc(NC2=CC(=O)CC(C)(C)C2)cc1OC,"15.8 µM [rising, single point]"
20,Cn1c(=O)c(-c2cccs2)nc2cncnc21,"10 µM [rising, partial curve]"
21,CCn1c2ccccc2c2nc3cc(S(=O)(=O)N4CCOCC4)ccc3nc21,"2 µM [rising, full curve]"
22,Cc1ccnc(SCCn2c(Br)nc3c2c(=O)[nH]c(=O)n3C)n1,"3.98 µM [rising, partial curve]"
23,Cc1noc(C)c1C(=O)N1CCC2(CCN(C(=O)Nc3ccccc3)CC2)CC1,"5.01 µM [falling, single point]"

# Shown as tab-separated lines: part of the list above
row	SMILES	AC50
4	N#Cc1nc(COc2ccccc2)oc1N1CCC(Cc2ccccc2)CC1	2 µM [rising, full curve]
5	CC(C)n1c(SCC(N)=O)nc2c1c(=O)n(C)c(=O)n2C	25.1 µM [rising, single point]
6	COC(=O)C1=C(C)OC(N)=C(C#N)C1c1cc(OC)c(OCC(N)=O)cc1Cl (configuration not stated)	0.00794 µM [falling, full curve]
7	NC(=O)NC(=O)Nc1ccccc1Cl	0.00398 µM [falling, full curve, poor fit]
8	CCCN1C(=O)SC(CC(=O)Nc2ccc(Br)cc2)C1=O (configuration not stated)	1.26 µM [rising, partial curve]
9	Cc1ccc2nc(NC(=O)C3CCN(S(=O)(=O)c4cccs4)CC3)sc2c1	0.398 µM [falling, single point]
10	COc1cccc2c1nc(C)c1cc(C)oc12	10 µM [rising, partial curve]
11	COc1ccc(-c2oc3ncnc(NCCCN4CCOCC4)c3c2-c2ccc(OC)cc2)cc1	5.01 µM [rising, partial curve]
12	Cc1ccccc1NC(=O)CSc1nc(N)c(C#N)c(-c2cccs2)c1C#N	12.6 µM [rising, single point]
13	CCc1[nH]nc2c1C1(CCN(C(=O)OCc3ccccc3)CC1)C(C#N)=C(N)O2	7.94 µM [rising, partial curve]
14	NCCSc1nc(-c2ccccc2)c(-c2ccccc2)o1	1 µM [rising, single point]
15	COc1nc2cc(C)ccc2cc1-c1noc(-c2cccnc2)n1	20 µM [falling, single point]
16	O=C(Nc1cc(C(F)(F)F)ccc1N1CCOCC1)c1cncc(Br)c1	12.6 µM [rising, single point]
17	O=C(Nc1ncccc1O)c1cccc(S(=O)(=O)N2CCc3ccccc32)c1	3.16 µM [falling, partial curve]
18	Cc1c(NC(=O)CSc2ccccc2C(=O)Nc2cccnc2)c(=O)n(-c2ccccc2)n1C	5.01 µM [rising, single point]
19	COc1ccc(NC2=CC(=O)CC(C)(C)C2)cc1OC	15.8 µM [rising, single point]

# (continued)

row,SMILES,AC50
1,N#Cc1cccc(-c2nc(Nc3ccncc3)c3ccccc3n2)c1,"2.51 µM [rising, full curve]"
2,CCc1nn(CC(=O)NCCCN(CC)Cc2ccccc2)c(=O)c2cc3sccc3n12,"6.31 µM [falling, partial curve]"
3,COCCOC(=O)C(C#N)c1nc2ccccc2nc1N1CCCC1 (configuration not stated),"1.26 µM [rising, partial curve]"
4,COCCNc1nnc(SCC(=O)c2ccc3c(c2)OCO3)s1,"10 µM [rising, single point]"
5,COCCCNC(=O)c1cc2c(=O)n3cccc(C)c3nc2n(C(C)C)c1=N,"3.16 µM [rising, full curve]"
6,CN1CCN(c2nc(-c3ccc(N(C)C)cc3)nc3ccccc23)CC1,"10 µM [rising, single point]"
7,COc1ccc(Cl)cc1NC(=O)C1CCCN(c2cc(C)nc3ncnn23)C1 (configuration not stated),"10 µM [rising, partial curve]"
8,CCCCn1c(=O)[nH]c(=O)c2c1nc(COc1ccc(C#N)cc1)n2CCC,"12.6 µM [rising, partial curve]"
9,CCCNC(=O)Cc1cc(=O)[nH]c(=O)[nH]1,"1 µM [rising, partial curve]"
10,CCCCC(c1nnnn1CCOC)N1CCN(C(=O)c2ccco2)CC1 (configuration not stated),"3.16 µM [rising, single point]"
11,S=c1[nH]c2ccc(Cl)cc2[nH]1,"0.126 µM [falling, full curve, poor fit]"
12,CN(C)S(=O)(=O)c1ccc(S(=O)(=O)N(CC(=O)Nc2ccccc2)Cc2ccco2)cc1,"0.1 µM [falling, single point]"
13,CCN1CCN(/C=N/c2nc3c(s2)CCCC3)CC1,"3.16 µM [falling, full curve, poor fit]"
14,Nc1nc(CN2CCN(c3ccc(F)cc3)CC2)nc(N2CCCc3ccccc32)n1,"0.126 µM [falling, full curve, poor fit]"
15,COc1ccc(-n2cnnc2SCc2cnc(-c3ccccc3)s2)cc1,"15.8 µM [rising, single point]"
16,O=C(OCc1cc2ccccc2[nH]c1=O)c1cccnc1,"6.31 µM [rising, partial curve]"
17,CCCCn1c(CN2CCN(c3cccc(Cl)c3)CC2)nc2c1c(=O)[nH]c(=O)n2C,"10 µM [rising, partial curve]"
18,C=CCNc1sc(C(=O)c2cccs2)c(N)c1C#N,"10 µM [rising, partial curve]"
19,CCOc1ccc(-n2c(SCc3nc(-c4cccs4)no3)nnc2-c2ccncc2)cc1,"10 µM [rising, partial curve]"
20,O=C(c1ccc(COc2ccc(F)cc2)o1)n1cccn1,"25.1 µM [rising, single point]"
21,Cc1nn(Cc2ccccc2)c(C)c1NC(=O)c1cc2nc(-c3ccco3)cc(C(F)(F)F)n2n1,"7.94 µM [rising, partial curve]"

# Source: PubChem BioAssay AID662 (National Center for Advancing Translational Sciences (NCATS), 2007)
